# Source: PubChem BioAssay AID1508623 (National Center for Advancing Translational Sciences (NCATS), 2021)
# What follows is the remainder of the data, with few or none of the hits. Results filed as inconclusive are left out. Active and inactive are the calls of the source. Calls follow the shape of the dose curve; as a rule, active = well fitted inhibition curve with a large enough effect; inconclusive = small, poorly fitted or top-dose-only effect; inactive = no such curve, though single readings can be large or run the other way.
# Experiment: Primary qHTS for Identification of Small Molecule Inhibitors of Huntingtin Promoter Activity; also: nearly all actives have a fitted effect of over 50% in size
# Conditions: HEK293 HTT promoter firefly luciferase reporter (activity 0% = vehicle and -100% = no light), 24 h; at 57.5 µM (top of the series)
# Excerpt: Assay Provider: Russell L. Margolis M.D.
# Department Neurology, Johns Hopkins University School of Medicine, Baltimore, MD
# Huntington's Disease (HD) is a neurodegenerative disorder caused by a CAG repeat expansion in exon 1 of huntingtin (HTT). While there are currently no disease-modifying treatments for HD, recent efforts have focused on development of nucleotide-based therapeutics to lower HTT expression. As an alternative to siRNA or oligonucleotide methods, we hypothesized that suppression of HTT expression might be accomplished by small molecules that either (1) directly decrease HTT expression by suppressing HTT promoter activity or (2) indirectly decrease HTT expression by increasing the promoter activity of HTT-AS, the gene antisense to HTT that appears to inhibit expression of HTT. […]
# 7; Detection; Luminescence; FLuc […]
# 1; High-throughput screening, measuring luminescence from a Hek293 luciferase reporter, was performed in 1,536 well white-walled tissue-culture treated plates. […]
# 4; Cells were then incubated for 24 hours at 37 degrees C prior to luminescence measurements.
# 5; In all cases, luminescence was measured using the Dual-Glo Luciferase Reporter Assay System (Promega) following the manufacturer's instructions. […]
# 7; Luminescence signal was obtained using the PerkinElmer ViewLux plate reader. […]
row,SMILES,"activity change, negative = inhibition"
1,CC(C)(C)c1ccc(O)cc1,inactive: 12%
